{"source": "patent US20120100582A1", "about": "(DSM IP ASSETS B V, published 2012)", "binders": {"B1": {"name": "PICE wild-type (enzyme)", "chain": "GQPASPPVVDTAQGRVLGKYVSLEGLAQPVAVFLGVPFAKPPLGSLRFAPPQPAEPWSFVKNTTSYPPMCCQDPVAGQMTSDLFTNGKERLIPEFSEDCLYLNIYTPADLTKRGRLPVMVWIHGGGLVVGGASTYDGLALAAHENVVVVAIQYRLGIWGFFSTGDEHSRGNWGHLDQVAALHWVQENIANFGGDTGSVTIFGESAGGESVSVLVLSPLAKNLFHRAISESGVALTAGLVRKDMKAAAKQIAVLAGCKTTTSAVFVHCLRQKSEDELLDLTLKMKFLTLDLHGDPRESHPFLPTVVDGVLLPKMPEEILAEKDFNTVPYIVGINKQEFGWLLPTMMGFPLSEGKLDQKTATSLLWKSFPITNIPEELTPVATDKYLGGTDDPVKKKDLFLDLMGDVVFGVPSVTVARQHRDAGAPTYMYEFQYRPSFSSDKKPKTVIGDHGDEIFSVFGFPLLKGDAPEEEVSLSKTVMKFWANFARSGNPNGEGLPHWPMYDQEEGYLQIGVNTQAAKRLKGEEVAFWNDLLSKEAAKKPPKIKHAEL"}, "B2": {"name": "PLE2 wild-type (enzyme)", "chain": "GQPASPPVVDTAQGRVLGKYVSLEGLAQPVAVFLGVPFAKPPLGSLRFAPPQPAEPWSFVKNTTSYPPMCCQDPVVEQMTSDLFTNGKERLTLEFSEDCLYLNIYTPADLTKRGRLPVMVWIHGGGLVLGGAPMYDGVVLAAHENVVVVAIQYRLGIWGFFSTGDEHSRGNWGHLDQVAALHWVQENIANFGGDPGSVTIFGESAGGESVSVLVLSPLAKNLFHRAISESGVALTVALVRKDMKAAAKQIAVLAGCKTTTSAVFVHCLRQKSEDELLDLTLKMKFLTLDFHGDQRESHPFLPTVVDGVLLPKMPEEILAEKDFNTVPYIVGINKQEFGWLLPTMMGFPLSEGKLDQKTATSLLWKSYPIANIPEELTPVATDKYLGGTDDPVKKKDLFLDLMGDVVFGVPSVTVARQHRDAGAPTYMYEFQYRPSFSSDKKPKTVIGDHGDEIFSVFGAPFLRGDAPEEEVSLSKTVMKFWANFARSGNPNGEGLPHWPMYDQEEGYLQIGVNTQAAKRLKGEEVAFWNDLLSKEAAKKPPKIKHAEL"}, "B3": {"name": "PLE3 wild-type (enzyme)", "chain": "GQPASPPVVDTAQGRVLGKYVSLEGLAQPVAVFLGVPFAKPPLGSLRFAPPQPAEPWSFVKNTTSYPPMCCQEPIGGQMLSDLFTNRKERLIPEFSEDCLYLNIYTPADLTKRGRLPVMVWIHGGGLVVGGASTYDGLALAAHENVVVVAIQYRLGIWGFFSTGDEHSRGNWGHLDQVAALHWVQENIANFGGDPGSVTIFGESAGGESVSVLVLSPLAKNLFHRAISESGVAFTAGLVRKDMKAAAKQIAVLAGCKTTTSAVFVHCLRQKSEDELLDLTLKMKPLTLDLHGDPRESHPFLTTVVDGVLLPKMPEEILAEKDFNTVPYIVGINKQEFGWLLPTMMGFPLSEGKLDQKTATSLLWKSYPIANIPEELTPVATDKYLGGTDDPVKKKDLFLDLMGDVVFGVPSVTVARQHRDAGAPTYMYEFQYRPSFSSDKKPKTVIGDHGDEIFSVFGFPLLKGDAPEEEVSLSKTVMKFWANFARSGNPNGEGLPHWPMYDQEEGYLQIGVNTQAAKRLKGEEVAFWNDLLSKEAAKKPPKIKHAEL"}, "B4": {"name": "PLE4 wild-type (enzyme)", "chain": "B3 chain with E73D, I75V, G76A, L80T, R87G, F459A, L461F, K463R"}, "B5": {"name": "PLE5 wild-type (enzyme)", "chain": "B1 chain with T195P, L234F, L286F, T287A, P302T, F367Y, T370A, F459A, L461F, K463R"}}, "assay_in_all_cases": "blue native gel electrophoresis, self-association (homotrimer)", "key": {"[1]": {"target": "PICE wild-type (pig) (UniProt Q29550)"}, "[2]": {"target": "PLE2 wild-type (pig) (UniProt Q29550)"}, "[3]": {"target": "PLE3 wild-type (pig) (UniProt Q29550)"}, "[4]": {"target": "PLE4 wild-type (pig) (UniProt Q29550)"}, "[5]": {"target": "PLE5 wild-type (pig) (UniProt Q29550)"}}, "note": "Positions count from the first letter of the chain named. Results are given in words; binding and its absence hold for the method and conditions named. Some binding calls cover weakened binding; strength is not graded here.", "data": [{"binder": "B1", "values": [{"measurement": "binding", "setting": "[1]", "result": "binds"}]}, {"binder": "B2", "values": [{"measurement": "binding", "setting": "[2]", "result": "binds"}]}, {"binder": "B3", "values": [{"measurement": "binding", "setting": "[3]", "result": "binds"}]}, {"binder": "B4", "values": [{"measurement": "binding", "setting": "[4]", "result": "binds"}]}, {"binder": "B5", "values": [{"measurement": "binding", "setting": "[5]", "result": "binds"}]}]}
